Measured values taken from PubChem BioAssay AID2685 (National Center for Advancing Translational Sciences (NCATS), 2010).
The list shows a part of the results. Further columns of the screen follow, without active or inactive calls. Most of these compounds were active or inconclusive in the main read-out, so they are no random draw. Words in brackets tell the shape of the fitted curve; partial curves, single points and poor fits give uncertain potencies.

Experiment: qHTS Assay for Lipid Storage Modulators in Drosophila S3 Cells;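 as to cell number change: cells counted by Cell Tracker Red CMTPX staining in the red channel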
Settings: BODIPY lipid droplet fluorescence, 18-24 h; for cell number change: measured here: cell count max response, cells fed with added oleic acid
Procedure, shortened: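 Drosophila S3 cells got compounds at several concentrations plus oleic acid (400 uM solution). Laser-scanning cytometry with 488 nm excitation read lipid droplets at 500-530 nm and cells at 575-640 nm. Percent activity was relative to 20 uM Triacsin C.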

[1] = measured here: cell number channel AC50, cells fed with added oleic acid
[2] = measured here: lipid fluorescence (Fed channel) AC50, cells fed with added oleic acid

| SMILES | cell number change [%] | AC50 [1] | AC50 [2] |
| --- | --- | --- | --- |
| Cc1ccc(-c2cc(C(=O)NCC3CCCO3)c3ccccc3n2)cc1C (stereo not given) | 56.8 | 6.51 µM [rising, partial curve, poor fit] | 6.51 µM [rising, partial curve, poor fit] |
| COC(=O)c1ccc2c(C)c(C(C)(C)O)[nH]c2c1 | 12.9 |  | 29.1 µM [rising, single point] |
| Brc1ccc(-c2nc(-c3ccccn3)no2)o1 | 3.09 |  |  |
| S=c1[nH]ncn1/N=C/c1ccc(Br)cc1 | -12.5 |  |  |
| O=C(NNC(=O)c1cnccn1)c1ccc(Cl)c(Cl)c1 | -11.6 |  | 18.4 µM [falling, single point] |
| CC12CC3(C)CC(C)(C1)CC(C(=O)Nc1nn[nH]n1)(C2)C3 | 0.779 | 1.3 µM [falling, partial curve] |  |
| CCCN(CC(=O)Nc1cccc(Br)c1)CC(=O)Nc1ccc(F)c(F)c1F | -21.6 |  | 18.4 µM [falling, single point] |
| O=c1cc(CN2CCN(c3ccccc3F)CC2)c2cc3c(cc2o1)CCCC3 |  |  | 0.164 µM [rising, full curve, poor fit] |
| COc1ccc(CCNC(=O)CN2CCN(S(=O)(=O)c3ccc(Cl)cc3)CC2)cc1OC | 24.1 |  |  |
| CN(CC(N)=O)S(=O)(=O)c1ccc(F)cc1 | -23.8 |  | 4.61 µM [falling, single point] |
| O=C(Nc1cccc(F)c1)N1CCCCCC1 | 16.8 |  |  |
| Cc1occc(=O)c1OCc1ccc(F)cc1 | 49.5 | 10.3 µM [rising, partial curve] |  |
| CCN(CC)S(=O)(=O)c1cccc(NC(=O)c2ccccc2Br)c1 |  | 0.82 µM [rising, single point] | 29.1 µM [rising, single point] |
| CCOC(=O)c1ccc(NC(=O)COc2ccc(CNCCO)cc2OCC)cc1 | 13.2 |  | 20.6 µM [falling, single point] |
| O=C(N/C=C\c1ccccc1)NCc1ccc(Cl)cc1Cl | -29.1 |  |  |
| CCc1ccccc1NC(=O)CC1S/C(=N\c2nccs2)N(CC)C1=O (stereo not given) | -15.2 |  | 5.8 µM [rising, partial curve] |
| COc1cccc(/C=C/C(=O)c2c(O)cc(C)oc2=O)c1O | 2.56 |  | 0.0731 µM [falling, full curve, poor fit] |
| O=C(CSc1nnc(CNc2ccc(F)cc2)n1CC1CCCO1)N1CCOCC1 (stereo not given) | -3.63 |  | 0.731 µM [falling, single point] |
| O=S(=O)(Nc1ccc2cn[nH]c2c1)c1ccc(Cl)s1 | 32.6 | 0.231 µM [rising, partial curve, poor fit] |  |
| CCN(NC(=O)C(O)(c1ccccc1)c1ccccc1)C(=O)c1ccccc1 | -33.3 | 20.6 µM [falling, partial curve, poor fit] | 29.1 µM [falling, single point] |

13 of these compounds, reformatted:
SMILES	cell number change [%]	AC50 [1]	AC50 [2]
O=C(NNC(=O)c1cnccn1)c1ccc(Cl)c(Cl)c1	-11.6		18.4 µM [falling, single point]
CC12CC3(C)CC(C)(C1)CC(C(=O)Nc1nn[nH]n1)(C2)C3	0.779	1.3 µM [falling, partial curve]	
CCCN(CC(=O)Nc1cccc(Br)c1)CC(=O)Nc1ccc(F)c(F)c1F	-21.6		18.4 µM [falling, single point]
O=c1cc(CN2CCN(c3ccccc3F)CC2)c2cc3c(cc2o1)CCCC3			0.164 µM [rising, full curve, poor fit]
COc1ccc(CCNC(=O)CN2CCN(S(=O)(=O)c3ccc(Cl)cc3)CC2)cc1OC	24.1		
CN(CC(N)=O)S(=O)(=O)c1ccc(F)cc1	-23.8		4.61 µM [falling, single point]
O=C(Nc1cccc(F)c1)N1CCCCCC1	16.8		
Cc1occc(=O)c1OCc1ccc(F)cc1	49.5	10.3 µM [rising, partial curve]	
CCN(CC)S(=O)(=O)c1cccc(NC(=O)c2ccccc2Br)c1		0.82 µM [rising, single point]	29.1 µM [rising, single point]
CCOC(=O)c1ccc(NC(=O)COc2ccc(CNCCO)cc2OCC)cc1	13.2		20.6 µM [falling, single point]
O=C(N/C=C\c1ccccc1)NCc1ccc(Cl)cc1Cl	-29.1		
CCc1ccccc1NC(=O)CC1S/C(=N\c2nccs2)N(CC)C1=O (stereo not given)	-15.2		5.8 µM [rising, partial curve]
COc1cccc(/C=C/C(=O)c2c(O)cc(C)oc2=O)c1O	2.56		0.0731 µM [falling, full curve, poor fit]

Reformatted: two of the compounds above.
SMILES	cell number change [%]	AC50 [1]	AC50 [2]
CCN(CC)S(=O)(=O)c1cccc(NC(=O)c2ccccc2Br)c1		0.82 µM [rising, single point]	29.1 µM [rising, single point]
CCOC(=O)c1ccc(NC(=O)COc2ccc(CNCCO)cc2OCC)cc1	13.2		20.6 µM [falling, single point]

Continued.

| SMILES | cell number change [%] | AC50 [1] | AC50 [2] |
| --- | --- | --- | --- |
| CC(OC(=O)Cc1c[nH]c2ccccc12)C(=O)Nc1ccccc1F (stereo not given) |  | 6.51 µM [falling, single point] | 10.3 µM [falling, partial curve] |
| CN(NC(=O)C(C)(C)C)c1nc(-c2ccccc2)nnc1C(F)(F)F |  | 0.651 µM [rising, partial curve] | 1.16 µM [rising, partial curve] |
| CC(C1CC1)N(Cc1ccccc1)C(=S)Nc1cccc(C(F)(F)F)c1 (stereo not given) | -1.81 |  | 0.82 µM [falling, full curve, poor fit] |
| CC(=O)N1CCCc2cc(S(=O)(=O)N3CCCC(C)C3)ccc21 (stereo not given) | 21.4 |  | 13 µM [rising, partial curve, poor fit] |
| O=C(NC1CC1)c1c(O)c2ccccc2[nH]c1=O |  | 5.8 µM [falling, single point] |  |
| O=C(Nc1ccccc1F)C1CCCN(S(=O)(=O)c2ccccc2)C1 (stereo not given) | 33.2 |  |  |
| COC(=O)C1=NN(C(=O)c2ccc(C)cc2)C(O)(c2ccc(Cl)cc2)C1 (stereo not given) | 72.2 | 29.1 µM [rising, single point] | 29.1 µM [rising, single point] |
| COc1ccccc1-c1cc(-c2ccccc2)nc(SC(C(N)=O)c2ccccc2)c1C#N (stereo not given) | -47.2 | 23.1 µM [falling, partial curve, poor fit] |  |
| Cc1ccc(-c2nn(Cc3ccccc3)cc2C(=O)N2CCN(c3ccccn3)CC2)cc1 | -3.06 | 2.06 µM [rising, partial curve, poor fit] | 1.3 µM [rising, full curve] |
| CCOc1ccc(NC(=O)C2CCN(S(=O)(=O)c3cccnc3)CC2)cc1 |  | 0.326 µM [rising, full curve] |  |
| CN(C)c1ccc(S(=O)(=O)N2CCCCC2)cc1NC(=O)C1CSC2(C)CCC(=O)N12 (stereo not given) | 2.69 |  | 29.1 µM [rising, single point] |
| COc1ccc(CCn2c(C)cc3c(c2=O)C(c2ccc4c(c2)OCO4)C(C#N)=C(N)O3)cc1OC (stereo not given) | -16.6 |  | 0.651 µM [rising, partial curve] |
| CC(C)C(=O)Nc1ccc(C(=O)CSc2nnc(C3CC3)n2C2CC2)cc1 | -36.3 | 3.26 µM [falling, full curve] | 3.66 µM [falling, full curve] |
| O=C(O)c1ccccc1S | -5.83 | 1.03 µM [falling, full curve, poor fit] |  |
| COc1ccc(S(=O)(=O)N2CCOC23CCN(S(=O)(=O)c2ccc(F)cc2C)CC3)cc1 | -14 |  | 18.4 µM [falling, partial curve, poor fit] |
| CCN(C(=O)Cn1cnc2cc([N+](=O)[O-])ccc2c1=O)C1CCS(=O)(=O)C1 (stereo not given) |  | 0.206 µM [falling, full curve, poor fit] |  |
| Cc1ccc2c(c1)N(C(=O)CCC(=O)NC1CCC(C)CC1)CCO2 (stereo not given) | 3.17 |  | 16.4 µM [falling, single point] |
| Cc1ccc2c(c1)N(CC(=O)NC1CCCCCC1)C(=O)c1cccnc1O2 | -6.49 | 7.31 µM [falling, partial curve, poor fit] |  |
| COc1ccc(C(=O)NCCS(=O)(=O)NC2CCCC2)cc1 |  | 6.51 µM [rising, single point] |  |
| CCNc1nc(Oc2ccc(Cl)cc2Cl)cc(C(F)(F)F)n1 | -98.6 | 29.1 µM [falling, single point] | 29.1 µM [falling, single point] |

| SMILES | cell number change [%] | AC50 [1] | AC50 [2] |
| --- | --- | --- | --- |
| COCCn1nnnc1C(c1cccc(OC)c1OC)N1CCN(C2CCCCC2)CC1 (stereo not given) | -3.96 |  |  |
| Cc1cc(Cl)ccc1OCC(=O)N[C@@H](Cc1ccccc1)c1nc2ccccc2[nH]1 | -53.9 | 14.6 µM [falling, partial curve, poor fit] | 16.4 µM [falling, partial curve] |
| COc1ccc(NC(=O)CC2(CC(=O)O)CCCC2)cn1 | -52.1 | 3.66 µM [falling, full curve] | 4.61 µM [falling, single point] |
| Cc1ccc(SCCNC(=O)c2ccc(C)c(S(=O)(=O)Nc3ccccc3C)c2)cc1 | -34.6 | 3.66 µM [falling, partial curve] |  |
| CCS(=O)(=O)N1CCC(C(=O)N2CCc3ccccc3C2)CC1 | -20.8 |  | 1.3 µM [falling, full curve] |
| CCN(CC(=O)N1CCN(C)CC1)S(=O)(=O)c1ccc(Cl)cc1 | -1.01 |  | 8.2 µM [falling, partial curve, poor fit] |
| C=CCN=c1scc(C)n1/N=C/c1ccc(O)c(O)c1 | 25.9 | 0.259 µM [rising, full curve] | 0.731 µM [rising, full curve] |
| CCN(CC)c1ccc(/C=N/N2CCN(Cc3ccc(C)cc3)CC2)c(O)c1 | -23.8 | 0.013 µM [falling, full curve, poor fit] |  |
| CCCSc1nsc(N)n1 | 1.32 |  | 23.1 µM [falling, single point] |
| COc1ccc(NS(=O)(=O)c2ccc(Cl)c(N)c2)cc1Br | -82.1 | 29.1 µM [falling, single point] | 29.1 µM [falling, single point] |
| CC(C)(C)NC(=O)C(c1cccnc1)N(C(=O)c1ccc(Cl)nc1)C1CCCC1 (stereo not given) | -1.44 |  | 32.6 µM [falling, single point] |
| O=C(Cc1ccc(-n2cccc2)cc1)NCc1ccccc1Cl | -37.9 | 0.231 µM [falling, partial curve, poor fit] |  |
| COC(=O)c1ccccc1NC(=O)CSc1nnc(-c2cccc(NC(C)=O)c2)n1C | 28 |  | 0.366 µM [rising, full curve] |
| CC(c1ccccc1)C1CC(=O)N(C2CCCCC2)C1=O (stereo not given) | -0.237 |  | 1.84 µM [falling, partial curve] |
| COCCNC(=O)COc1ccc(C)cc1C(=O)c1cc(C#N)c(=O)n(C2CC2)c1 | -11.1 |  |  |
| Cn1c2ccccc2c(=O)c2ccc(C#CC3(O)CCCCC3)cc21 | -12.3 |  | 29.1 µM [falling, single point] |
| CC(C)(C)c1ccc(C(=O)NCC(=O)N/N=C/c2ccccc2OCC(=O)O)cc1 | -38 | 2.31 µM [falling, partial curve] | 1.03 µM [falling, partial curve] |
| Cc1ccc(C(=O)Nc2ccc3c(c2)OCO3)cc1S(=O)(=O)N1CCCC1 |  |  | 0.259 µM [rising, full curve, poor fit] |
| CC(=O)N=C1SC2CS(=O)(=O)CC2N1c1cccc(Cl)c1Cl (stereo not given) | 32 | 18.4 µM [rising, single point] |  |
